From PubChem BioAssay AID1259415 (National Center for Advancing Translational Sciences (NCATS), 2018)
Among all 410,000 compounds or so, about 18,000 (4.4%) were called active. Inconclusive means that the source gave no clear call. Such entries were picked first, then a sample of the others. Rule as the data show it: active = activity change below about -60%; inconclusive = no clear call, values can overlap the other calls; inactive = above about -39%.

Experiment: qHTS Assay for inhibitors of the human cytomegalovirus (HCMV)
Conditions: HFF cells, HCMV-luciferase reporter, 72 h; at 57.5 µM; active compounds read low
Procedure, shortened: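 Luciferase read-out from HCMV-luciferase-infected HFFs (MOI 1 PFU/cell) 72 h post infection at 37C; compounds added after 16 h cell attachment; activity normalized between buffer-only basal and Salinomycin (10uM) inhibitor controls.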
% is scaled to controls: 0 for no effect and ±100 for the full control effect.

Compound	activity change, negative = inhibition
O=S(=O)(c1ccc2c(c1)OCCO2)N1CCN(c2nc3ccccc3s2)CC1	inconclusive: -58.3%
CC(=O)Nc1cc[n+](C(C)C(=O)c2ccc(Cl)cc2)cc1 (stereo not drawn)	inconclusive: -44.3%
CC(C)(C)c1ccc(OCC(=O)Nc2ccncc2)cc1	inconclusive: -50.4%
CN(C)S(=O)(=O)c1cccc(NC(=O)c2cccc(S(=O)(=O)N3CCCCCC3)c2)c1	active: -61.4%
O=C(Nc1ccccc1Cl)C1CCCN(c2ncnc3c2nc2n3CCCCC2)C1 (stereo not drawn)	inconclusive: -46.8%
CC(C)=C1SC(N2CCN(c3cccc(C)c3)CC2)=NC1=O	inconclusive: -44.2%
O=S(Cc1ccc(Br)cc1)Cc1nnc(SCc2ccc(Cl)cc2)n1-c1ccccc1 (stereo not drawn)	active: -65.6%
O=[N+]([O-])c1ccc(CSc2nc3ccccc3[nH]2)cc1	inconclusive: -58.7%
Cc1ccc(S(=O)(=O)N2CCCCC2)cc1NC(=O)CSc1ncnc2ccccc12	active: -70.9%
O=[N+]([O-])c1ccc(Sc2cccc[n+]2[O-])c2nonc12	active: -106%
C/C=C/C=C\C(=O)Nc1cccc(C2=NOC3(C2)C[C@H](C(N)=O)N(C(=O)/C=C/C)C3)c1 (stereo partly drawn)	inconclusive: -40.6%
Cc1cc(C)nc(OC(C(=O)O)C(OCc2ccccc2)(c2ccccc2)c2ccccc2)n1 (stereo not drawn)	inconclusive: -54.4%
CCNC(=O)C1(C)CCCN(C(=O)c2cccc(C)c2C)C1 (stereo not drawn)	inactive: -6.16%
N/C(=N\OC(=O)c1ccccc1Cl)c1ccncc1	active: -99.5%
Cc1cc(=O)n2c3ccccc3n(CC(O)CN3CCCC3)c2c1C#N (stereo not drawn)	inconclusive: -44.7%
CC(C)CCNC(=O)Cn1c(=O)oc2cc(S(=O)(=O)N3CC(C)CC(C)C3)ccc21 (stereo not drawn)	inconclusive: -43.8%
O=C(c1cccc(S(=O)(=O)NCc2ccccc2)c1)N1CCN(c2ccc(F)cc2)CC1	inconclusive: -42.9%
CC(C)C[C@H](NC(=O)c1nc[nH]c1C(=O)N[C@@H](CC(C)C)C(=O)OCc1ccccc1)C(=O)OCc1ccccc1	inactive: 84.2%
Cc1ccccc1SCC(=O)N/N=C/c1ccc(F)cc1	inconclusive: -42.8%
CCOC(=O)c1c(N)n(-c2ccc(N)cc2)c2nc3ccccc3nc12	inconclusive: -43%
CC(=O)NC1CC2CCCC(C1)N2CC(=O)N1CCCc2ccccc21 (stereo not drawn)	inactive: 36.1%
CC(=O)c1cccc(NC(=O)c2ccc(N(Cc3ccc(C)cc3)S(C)(=O)=O)cc2)c1	inactive: -6.77%

Compound	activity change, negative = inhibition
Cc1noc(C)c1COc1ccccc1C(=O)N1CCN(S(=O)(=O)c2cccc([N+](=O)[O-])c2)CC1	inconclusive: -56%
O=C(COc1ccc2c(-c3ccccc3)cc(=O)oc2c1)Nc1ccc(CCO)cc1	active: -67.7%
COc1ccc(NC(=O)C2CC(=O)N(c3cc(C)ccc3C)C2)cc1 (stereo not drawn)	inconclusive: -42.9%
COc1ccc(NS(=O)(=O)c2ccc3c(c2)CC(C)N3C(=O)C2CCC2)cc1OC (stereo not drawn)	active: -78.4%
Cc1nc(N2CCN(c3ccccc3O)CC2)c2c(-c3ccccc3)csc2n1	inactive: -33.5%
COCc1cc(CN(C)C(=O)C2CCC(=O)N(Cc3cccc(OC)c3)C2)[nH]n1 (stereo not drawn)	inactive: -18.7%
COc1ccc(CCN2C(=O)CCC2(C)C(=O)NCc2cccnc2)cc1OC (stereo not drawn)	inactive: 5.48%
OCC[C@@H]1C[C@H](O)[C@@H](O)[C@@]2(OCCCc3ccccc32)O1	inconclusive: -49.8%
CCC12CN3CC(CC)(CN(C1)C3c1c[nH]c3ccccc13)C2=O (stereo not drawn)	inactive: 34.4%
Cc1cc(OCC(O)CN2C(C)CCCC2C)ccc1C(C)C (stereo not drawn)	inactive: 7.09%
CCc1ccc(NC(=O)C2(c3ccccc3)CC2(Cl)Cl)cc1 (stereo not drawn)	inconclusive: -42.5%
CC(NC(=S)Nc1ccccc1Cl)C(c1cccs1)N1CCCC1 (stereo not drawn)	inconclusive: -40.8%
Cc1noc2ncnc(NCCc3ccccc3)c12	inconclusive: -49.1%
N=C(N)SCc1ccc(Cl)cc1Cl	inactive: -33.8%
Cc1nc(N2CCCCC2)c2c(C)c(C(=O)Nc3ccc4c(c3)OCCO4)sc2n1	active: -61.4%
Cc1cc(NC(=O)Nc2ccc(F)cc2)no1	inactive: -6.18%
COc1ccc(/C=C(\C#N)C(=O)NCc2ccccc2)cc1O	inconclusive: -49.2%
CCOC(=O)c1cccc(NC(=O)c2ccc(N(C)C)cc2)c1	inactive: 19.9%
O=C(NCc1ccccc1)C(=O)NCC1OCCN1C(=O)c1ccc(Cl)cc1 (stereo not drawn)	inactive: -24.3%
Cc1c(C(=O)N(C)Cc2ccccc2)sc2nc(-c3ccc(F)cc3)cn12	active: -82%
COC(=O)c1c(NC(=O)CSc2nc3ccccc3c(=O)n2Cc2ccco2)sc(C)c1C	inactive: -19%
CN1CCC(CC(C(=O)N2CCCC2)(c2ccccc2)c2ccccc2)C1 (stereo not drawn)	inactive: 18.2%

Part of the list above in order of heavy-atom count, low to high.
Compound	activity change, negative = inhibition
CCOC(=O)c1cccc(NC(=O)c2ccc(N(C)C)cc2)c1	inactive: 19.9%
Cc1nc(N2CCCCC2)c2c(C)c(C(=O)Nc3ccc4c(c3)OCCO4)sc2n1	active: -61.4%
Cc1noc(C)c1COc1ccccc1C(=O)N1CCN(S(=O)(=O)c2cccc([N+](=O)[O-])c2)CC1	inconclusive: -56%

(cont.)

Compound	activity change, negative = inhibition
CC1Sc2ccccc2N(Cc2ccc(OC(F)(F)F)cc2)C1=O (stereo not drawn)	inconclusive: -52%
O=C(N/N=C/c1ccoc1)c1cc(O)cc(O)c1	inactive: 14.2%
COc1ccc(N2CCN(C(=O)c3ccc4c(c3)CCN4S(=O)(=O)c3ccccc3)CC2)cc1	inconclusive: -40.5%
O=C(NCc1cnc2ccccn12)C1CCC(=O)N(Cc2ccccc2F)C1 (stereo not drawn)	inactive: 28.1%
Cc1ccc(Cn2c(SCC(C)C)nc3c2c(=O)[nH]c(=O)n3C)cc1	inactive: 0.559%
CC(=O)c1ccc(OCC(O)CN2CCN(S(=O)(=O)c3c(C)c(C)cc(C)c3C)CC2)cc1 (stereo not drawn)	active: -72.5%
COc1ccccc1CNc1ccc(Br)cn1	inactive: 16.7%
Cc1cccc(NC(=O)/C(C#N)=C/c2cn(CC(=O)NCc3ccco3)c3ccccc23)c1	active: -63.1%
Cc1ccnc(NS(=O)(=O)c2ccc(NC(=O)C3CC=CCC3C(=O)O)cc2)n1 (stereo not drawn)	inconclusive: -46.8%
CC(=O)Nc1cccc(C(=O)N/N=C/c2cccc(C)n2)c1	inconclusive: -41.5%
CCOCC(=O)NC1CCc2cc(OC(=O)COCC)c(OC)c(OC)c2-c2ccc(SC)c(=O)cc21 (stereo not drawn)	inconclusive: -54.4%
COc1cc(/C=N/Nc2nc(-c3ccc(S(=O)(=O)N(C)C)cc3)cs2)ccc1O	active: -65.5%
Cc1ccc(CC2S/C(=C(/C#N)C(=O)NCc3ccco3)N(c3ccccc3)C2=O)cc1 (stereo not drawn)	inactive: 6.59%
CCOc1ccccc1Nc1ccnc2cc(Cl)ccc12	inconclusive: -55.1%
CCS(=O)(=O)c1nc(S(=O)(=O)c2ccc(C)cc2)c(N2CC(C)OC(C)C2)s1 (stereo not drawn)	inconclusive: -54.4%
NNC(=O)c1sccc1OCc1ccc(F)cc1	inconclusive: -45.1%
C/C(=N\NC(=O)c1cccc2ccccc12)c1ccccn1	active: -96.2%
Cc1[nH]c(=O)[nH]c(=O)c1S(=O)(=O)N1CCC(C(=O)NC(C)c2ccccc2)CC1 (stereo not drawn)	inconclusive: -44.7%
COC(Cc1ccccc1N1CCCC1=O)OC	inconclusive: -50.8%
CCOC(=O)C1(C)CCCN(C(=O)c2ccccc2C(F)(F)F)C1 (stereo not drawn)	inconclusive: -52%
Cc1nn(C)c(C)c1CN(C)S(=O)(=O)c1ccc2ccccc2c1	active: -81.8%
O=C(CCc1nnc(CCCCc2ccccc2)o1)NCCC1CCCCO1 (stereo not drawn)	inconclusive: -44.7%

Compounds from the list above containing a COOH group (2):
Compound	activity change, negative = inhibition
Cc1cc(C)nc(OC(C(=O)O)C(OCc2ccccc2)(c2ccccc2)c2ccccc2)n1 (stereo not drawn)	inconclusive: -54.4%
Cc1ccnc(NS(=O)(=O)c2ccc(NC(=O)C3CC=CCC3C(=O)O)cc2)n1 (stereo not drawn)	inconclusive: -46.8%

(cont.)

Compound	activity change, negative = inhibition
Cc1ccc(C2=NN(S(=O)(=O)c3ccccc3)C(c3ccco3)C2)cc1 (stereo not drawn)	inconclusive: -49.4%
COc1cc2nc(NCC3CCCO3)n3nc(-c4cccnc4)nc3c2cc1OC (stereo not drawn)	inconclusive: -41.5%
O=C(CSc1nc(-c2ccco2)cc(C(F)(F)F)n1)NCCCN1CCOCC1	inconclusive: -42.1%
CSC(=S)NN=C(C)c1cccc(C)n1	active: -80.2%
O=C(Nc1nc(-c2ccccn2)cs1)c1ccccc1-n1cnnn1	active: -91.9%
CC(Sc1nc2ccccc2c(=O)n1CCCN1CCOCC1)C(=O)N1CCc2ccccc21 (stereo not drawn)	inactive: 28.6%
CCC(O)(c1ccc(OC)cc1)C(CN1CCOCC1)c1ccccc1 (stereo not drawn)	inconclusive: -45.3%
Cc1onc(NC(=O)c2ccc([N+](=O)[O-])o2)c1Br	inconclusive: -41%
CCCSc1ncc(Cl)c(C(=O)Nc2ccc(S(=O)(=O)N3CCCC(C)C3)cc2)n1 (stereo not drawn)	inconclusive: -42.7%
Cc1c(C(=O)N(Cc2ccc(N(C)C)cc2)CC2CCCO2)oc2ccccc12 (stereo not drawn)	inconclusive: -43.5%
Cc1cccc(C)c1NC(=O)C1CCCN1C(=O)Nc1cccc(F)c1 (stereo not drawn)	inconclusive: -55.2%
Cc1ccsc1C(=O)N1CCCC(C)(C(=O)O)C1 (stereo not drawn)	inactive: -2.62%
C=CCn1c(-c2ccc([N+](=O)[O-])cc2)n[nH]c1=S	inactive: -36.8%
Oc1ccc2ccccc2c1CNc1ccccn1	inconclusive: -52.1%
Cc1nc(-c2ccc(Cl)cc2)sc1C1(C)CC(c2ccc(Br)cc2)=NO1 (stereo not drawn)	inconclusive: -43.7%
Cc1ccc(C(C)(C)C)c(SCC(=O)Nc2nnc(C)s2)c1	inconclusive: -57.7%
Cc1cc(N2CCN(Cc3nc(-c4ccc(F)cc4)oc3C)CC2)cc(C)n1	inconclusive: -52.1%
CN(C)c1ccc(S(=O)(=O)NCC(=O)OCC(=O)Nc2cccc(Cl)c2)cc1[N+](=O)[O-]	inactive: 11.6%
Cc1cc(C)c(S(=O)(=O)N2CCOC23CCN(S(C)(=O)=O)CC3)c(C)c1	inconclusive: -55.5%
CSc1cccc(NC(N)=S)c1	inconclusive: -48.3%
CCOC(=O)Cc1cc(C(=O)Nc2ccc(Br)cc2)sc1-c1ccc(C)cc1	inconclusive: -41.7%
Cc1cccc(C)c1NC(=O)Cn1c(=O)n(Cc2ccc(C(=O)NCc3ccco3)cc2)c(=O)c2sccc21	active: -66.1%
